## Results of single-concentration screens

Amino acid sequences for entries named in this document (tags omitted). Residues count along the entry.
UniProt Q8IDJ8, 1-583: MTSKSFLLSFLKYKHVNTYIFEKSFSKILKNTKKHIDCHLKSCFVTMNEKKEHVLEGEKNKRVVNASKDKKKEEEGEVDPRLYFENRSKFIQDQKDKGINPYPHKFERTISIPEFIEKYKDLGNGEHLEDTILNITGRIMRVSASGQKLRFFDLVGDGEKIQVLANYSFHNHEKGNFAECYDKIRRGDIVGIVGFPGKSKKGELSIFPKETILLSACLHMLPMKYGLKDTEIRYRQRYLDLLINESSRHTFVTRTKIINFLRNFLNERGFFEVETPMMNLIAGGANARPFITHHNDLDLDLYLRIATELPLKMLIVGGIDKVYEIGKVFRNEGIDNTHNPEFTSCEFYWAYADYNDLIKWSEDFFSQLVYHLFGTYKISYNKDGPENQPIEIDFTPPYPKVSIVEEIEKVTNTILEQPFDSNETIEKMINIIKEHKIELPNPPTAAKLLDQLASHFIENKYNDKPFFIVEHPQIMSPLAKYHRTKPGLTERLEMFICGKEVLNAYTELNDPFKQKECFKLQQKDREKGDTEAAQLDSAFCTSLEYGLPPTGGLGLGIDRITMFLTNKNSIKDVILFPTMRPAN
UniProt I6X8D2, whole entry: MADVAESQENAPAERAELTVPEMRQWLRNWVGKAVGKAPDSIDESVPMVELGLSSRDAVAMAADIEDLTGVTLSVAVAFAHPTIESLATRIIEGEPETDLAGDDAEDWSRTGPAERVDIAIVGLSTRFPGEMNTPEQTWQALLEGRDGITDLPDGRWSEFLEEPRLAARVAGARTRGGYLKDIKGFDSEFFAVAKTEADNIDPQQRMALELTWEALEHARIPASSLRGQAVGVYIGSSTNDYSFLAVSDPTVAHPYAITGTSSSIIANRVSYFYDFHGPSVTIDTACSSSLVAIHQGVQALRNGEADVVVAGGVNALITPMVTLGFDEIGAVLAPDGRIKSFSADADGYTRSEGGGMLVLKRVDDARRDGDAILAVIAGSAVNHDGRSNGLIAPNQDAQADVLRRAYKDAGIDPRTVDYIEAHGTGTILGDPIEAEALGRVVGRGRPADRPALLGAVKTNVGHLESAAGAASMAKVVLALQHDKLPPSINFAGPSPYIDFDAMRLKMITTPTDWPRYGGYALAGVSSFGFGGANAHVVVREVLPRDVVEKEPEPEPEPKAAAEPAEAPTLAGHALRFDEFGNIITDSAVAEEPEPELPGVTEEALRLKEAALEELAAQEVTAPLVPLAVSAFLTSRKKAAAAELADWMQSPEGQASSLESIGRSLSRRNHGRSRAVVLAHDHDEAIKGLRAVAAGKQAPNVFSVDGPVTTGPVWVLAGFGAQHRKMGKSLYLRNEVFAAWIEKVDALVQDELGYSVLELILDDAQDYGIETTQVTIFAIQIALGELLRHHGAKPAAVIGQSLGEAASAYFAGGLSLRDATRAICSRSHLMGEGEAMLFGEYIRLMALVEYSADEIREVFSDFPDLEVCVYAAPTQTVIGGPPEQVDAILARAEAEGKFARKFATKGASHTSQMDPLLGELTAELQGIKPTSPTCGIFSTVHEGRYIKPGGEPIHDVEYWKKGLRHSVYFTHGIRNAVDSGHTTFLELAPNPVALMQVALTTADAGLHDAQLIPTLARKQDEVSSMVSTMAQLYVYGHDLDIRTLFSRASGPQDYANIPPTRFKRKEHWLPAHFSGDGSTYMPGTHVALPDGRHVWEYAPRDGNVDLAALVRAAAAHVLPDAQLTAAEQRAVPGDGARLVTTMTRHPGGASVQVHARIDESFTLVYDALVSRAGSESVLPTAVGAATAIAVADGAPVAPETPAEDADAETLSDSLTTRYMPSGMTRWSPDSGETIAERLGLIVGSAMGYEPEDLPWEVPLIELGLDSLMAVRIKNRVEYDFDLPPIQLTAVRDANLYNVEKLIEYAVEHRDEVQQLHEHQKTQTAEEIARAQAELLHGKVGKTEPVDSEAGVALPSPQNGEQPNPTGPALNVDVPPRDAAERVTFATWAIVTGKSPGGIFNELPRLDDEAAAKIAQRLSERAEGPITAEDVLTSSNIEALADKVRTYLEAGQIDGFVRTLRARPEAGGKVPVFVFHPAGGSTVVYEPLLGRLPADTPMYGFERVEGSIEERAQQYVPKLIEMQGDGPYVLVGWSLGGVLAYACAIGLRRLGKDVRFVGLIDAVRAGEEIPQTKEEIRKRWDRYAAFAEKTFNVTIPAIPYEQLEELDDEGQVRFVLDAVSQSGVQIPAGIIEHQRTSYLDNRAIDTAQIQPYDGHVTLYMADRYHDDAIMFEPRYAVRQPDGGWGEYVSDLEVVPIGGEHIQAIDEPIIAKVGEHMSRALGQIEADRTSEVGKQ
UniProt P9WPC5, whole entry: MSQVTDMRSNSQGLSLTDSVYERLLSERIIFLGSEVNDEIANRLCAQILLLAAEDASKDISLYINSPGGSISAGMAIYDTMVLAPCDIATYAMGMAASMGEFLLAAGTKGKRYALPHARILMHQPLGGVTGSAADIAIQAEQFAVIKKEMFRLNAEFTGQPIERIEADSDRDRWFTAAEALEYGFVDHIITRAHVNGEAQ
UniProt P9WPC3, whole entry partner: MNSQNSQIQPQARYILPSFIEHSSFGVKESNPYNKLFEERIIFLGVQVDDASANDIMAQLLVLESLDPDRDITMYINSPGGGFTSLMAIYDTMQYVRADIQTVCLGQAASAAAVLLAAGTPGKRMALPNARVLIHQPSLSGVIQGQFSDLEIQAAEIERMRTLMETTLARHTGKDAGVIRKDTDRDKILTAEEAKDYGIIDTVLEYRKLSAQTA

From ChEMBL document CHEMBL3988442, “University of Dundee, Small-Polar-MMV Screening Library” (2021).

PfKRS1: 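Enzyme assay of the cytosolic lysyl-tRNA synthetase in 384-well plates, read by luminescence. Target: Lysine-tRNA ligase, Plasmodium falciparum 3D7 (UniProt Q8IDJ8). Compounds at 30 µM. Higher reads as stronger inhibition, judged from the few compounds that gave an IC50. Size under these conditions: about 69,000 compounds, about 49 of them at 50% or above in at least one test.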
Pks13 thioesterase: 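Enzyme assay of the thioesterase domain of polyketide synthase 13; the read-out is not stated. Target: Polyketide synthase Pks13, Mycobacterium tuberculosis (UniProt I6X8D2). Compounds at 30 µM. Higher reads as stronger inhibition (inferred from which compounds were picked for retests). Of about 67,000 compounds tested this way, about 300 (0.46%) reached 50% or more in at least one test.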
ClpP1P2: 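ClpP1P2, Mycobacterium tuberculosis (UniProt P9WPC5 and UniProt P9WPC3). Protease assay of ClpP1P2, read by the AMC dye that it sets free. Concentration: 50 µM. Direction is inferred from only a few compounds that gave an IC50; most scored high, so higher reads as stronger inhibition. Most other retested compounds had strongly negative values. About 69,000 compounds were tested under these conditions; 0.015% (about 10) showed 50% or more at least once.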

Each number is a percent effect as filed.
The controls that fix the scale are not given in the record; negative values are as filed.
This is an unselected part of the compounds tested.

SMILES,PfKRS1,Pks13 thioesterase,ClpP1P2
CCC(NCc1nccn1C)c1nc(C(F)(F)F)cs1 (centres unmarked),10.56,10.21,-11.27
CS(=O)(=O)c1cncnc1C1CCCNC1 (centres unmarked),5.699,8.445,18.1
OCCN1CCC(CNCc2ccc(N3CCCCC3)cc2)CC1,0.9806,-10.62,-6.82
c1cnc(N2CCCn3nnc(COCC4CC4)c3C2)nc1,3.635,-30.83,-6.953
Cc1ccc2nc(C)cc(NCCNS(=O)(=O)c3cccnc3)c2c1,1.416,11.52,-23.47
COC(=O)c1ccc(N2CCN(CCC(=O)NC(N)=O)C(C)C2)cc1 (centres unmarked),8.306,-14.51,9.379
CCC1CN(C(=O)c2ccccc2C(C)=O)CCN1C(C)C (centres unmarked),6.166,-10.23,0.2455
COC(=O)CNC(=O)c1cn(-c2ccccn2)c(=O)c2ccccc12,2.439,41.37,-134.1
O=C(O)CN(Cc1ccsc1)CC1CCCO1 (centres unmarked),2.661,-9.657,-7.943
O=C(NCc1cccnc1N1CCc2ccccc2C1)c1cc(=O)[nH][nH]1,4.492,-5.913,-10.73
Fc1ccc(Cc2cccc(C3CCN(C4CCOCC4)CC3)n2)cc1,3.281,-4.299,13.54
Cc1oc(C(=O)O)cc1S(=O)(=O)Nc1cc(Cl)ccc1F,-8.103,-8.571,-4.8
CCOCC1CN(C(=O)c2cnoc2C)Cc2cnn(C)c21 (centres unmarked),1.604,-32.41,-11.97
O=S(=O)(c1cccnc1)N1C[C@@H]2COC[C@]2(CN2CCOCC2)C1,1.472,-24.29,2.944
COc1ccccc1C(=O)Nc1cc(CC(C)C)nn1C,-0.6804,-5.38,-18.26
O=C(c1ccc(COc2ccc(Cl)cc2)o1)N1N=CCC1(O)C(F)(F)F (centres unmarked),1.775,73.22,2.661
COCC(=O)N1CCC2(CC1)C(=O)N(Cc1cccnc1)CCN2C,1.656,-46.06,-4.466
CN(Cc1noc(C2CC2)n1)C1CCN(Cc2nnc(C3CC3)o2)C1 (centres unmarked),3.644,1.204,6.761
Cc1cccc(NC(=O)c2csc(NCC(C)C)n2)n1,4.498,-5.618,-4.771
CCOc1ccc(CC(=O)Nc2cnccc2SCCCO)cc1,2.614,-6.812,14.1
O=C(NCC(=O)N1CCC2(CC1)OCCO2)c1ccoc1,1.956,-32.89,-9.656
Cc1nc(N2CCCC2)nc2c1CCN(C(=O)CC1CC1)CC2,2.694,-15.43,5.369
Clc1snnc1CN1CCCC1Cn1cccn1 (centres unmarked),-0.2762,-2.933,-11.61
O=C(c1cc(C2CCCC2)no1)N1CC(O)C1,8.234,-14.83,3.786
CCn1nc(C)c(CCNC(=O)C2CCCN(C(=O)COC)C2)c1C (centres unmarked),2.154,-1.663,1.017
N#Cc1ccc(OC2CCN(C(=O)COCC3CCCO3)CC2)cc1 (centres unmarked),9.712,-3.569,4.538
COc1ccc(NC(=O)c2ccc[nH]2)c(N2CCN(C(C)=O)CC2)n1,11.52,31.88,-1.54
CC(C)c1cc(CN2CCN(c3cccnc3)CC2)n(C)n1,2.334,-1.68,-12.47
O=C(c1ccco1)N1CCCC2(CN(Cc3ccoc3)CCO2)C1 (centres unmarked),2.713,-34.18,-17.88
O=C(C1CCSCC1)N1CC[C@H]2OCC[C@@]2(COCC2CC2)C1,-0.1753,0.333,-5.091
CCC(C)N(Cc1cnc(NCC(=O)O)nc1)Cc1ccsc1 (centres unmarked),3.324,-9.539,-26.1
Cc1nc(CN[C@H]2CCCN(C(=O)OC(C)(C)C)C2)cs1,-1.449,-10.15,-1.34
O=S(=O)(C1CC1)N1CCO[C@@H]2CN(Cc3ccco3)C[C@@H]2C1,0.1553,-22.58,-10.73
Cn1nc(Br)c2c(=O)n(CCc3ccccc3)cnc21,1.052,-6.997,-6.071
Cc1cc(C)cc(C(=O)Nc2cn[nH]c2)c1,0.9203,-6.845,-16.99
CCn1nc(CC(C)C)cc1C(=O)N1CC(N2CCCCC2C)C1 (centres unmarked),3.071,-16.63,4.927
O=C([C@H]1COC[C@H]2CN(C3CCOCC3)C[C@H]21)N1CCC(F)CC1,2.647,-4.064,2.281
CCn1nc(C)cc1C(=O)OCCNC(=O)c1ccccc1,4.536,-7.672,-3.35
Cc1cccc(-c2nc(C)nn2CC(=O)N(C)C2CC2)c1,6.898,-5.506,5.54
CCOc1ccc2cc(C(=O)NCCNc3ccc(C)nn3)[nH]c2c1,0.5528,-14.13,2.004
CC(C)C(=O)NC1COC2(CCN(C(=O)c3ccc[nH]3)CC2)C1 (centres unmarked),1.606,-31.71,7.152
O=c1nc(CNc2ccccc2)[nH]n1Cc1ccccc1,5.676,-28.63,-2.701
Cn1cc(CN2CCC3(CCCCN3S(C)(=O)=O)CC2)cn1,5.875,-2.202,9.472
CC1(c2ccccc2)CCC(=O)N(CCCN2CCOCC2)C1 (centres unmarked),3.666,-21.57,-0.1979
Cc1ccccc1-n1cc(-c2ccnc(N[C@@H](CO)C(C)C)n2)cn1,0.4035,-40,-1.052
CNC(=O)C(C)(C)N1CCC[C@H]1C(=O)NC(C)(C)C,3.241,12.44,5.841

For reference, 3 entries once more:

For COc1ccc(NC(=O)c2ccc[nH]2)c(N2CCN(C(C)=O)CC2)n1 the result was PfKRS1: 11.52%; Pks13 thioesterase: 31.88%; ClpP1P2: -1.54%.
For CCC(NCc1nccn1C)c1nc(C(F)(F)F)cs1 (centres unmarked) the result was PfKRS1: 10.56%; Pks13 thioesterase: 10.21%; ClpP1P2: -11.27%.
For O=C(O)CN(Cc1ccsc1)CC1CCCO1 (centres unmarked) the result was PfKRS1: 2.661%; Pks13 thioesterase: -9.657%; ClpP1P2: -7.943%.